Results reported in PMC6331435.
These are yes or no findings as the source states them, for the method shown. In cells and extracts the contact can be indirect. Some binding calls cover weakened binding; strength is not graded here.

Target: T1, DROSHA (human (endogenous in K562)), Q9NRR4
T1 chain: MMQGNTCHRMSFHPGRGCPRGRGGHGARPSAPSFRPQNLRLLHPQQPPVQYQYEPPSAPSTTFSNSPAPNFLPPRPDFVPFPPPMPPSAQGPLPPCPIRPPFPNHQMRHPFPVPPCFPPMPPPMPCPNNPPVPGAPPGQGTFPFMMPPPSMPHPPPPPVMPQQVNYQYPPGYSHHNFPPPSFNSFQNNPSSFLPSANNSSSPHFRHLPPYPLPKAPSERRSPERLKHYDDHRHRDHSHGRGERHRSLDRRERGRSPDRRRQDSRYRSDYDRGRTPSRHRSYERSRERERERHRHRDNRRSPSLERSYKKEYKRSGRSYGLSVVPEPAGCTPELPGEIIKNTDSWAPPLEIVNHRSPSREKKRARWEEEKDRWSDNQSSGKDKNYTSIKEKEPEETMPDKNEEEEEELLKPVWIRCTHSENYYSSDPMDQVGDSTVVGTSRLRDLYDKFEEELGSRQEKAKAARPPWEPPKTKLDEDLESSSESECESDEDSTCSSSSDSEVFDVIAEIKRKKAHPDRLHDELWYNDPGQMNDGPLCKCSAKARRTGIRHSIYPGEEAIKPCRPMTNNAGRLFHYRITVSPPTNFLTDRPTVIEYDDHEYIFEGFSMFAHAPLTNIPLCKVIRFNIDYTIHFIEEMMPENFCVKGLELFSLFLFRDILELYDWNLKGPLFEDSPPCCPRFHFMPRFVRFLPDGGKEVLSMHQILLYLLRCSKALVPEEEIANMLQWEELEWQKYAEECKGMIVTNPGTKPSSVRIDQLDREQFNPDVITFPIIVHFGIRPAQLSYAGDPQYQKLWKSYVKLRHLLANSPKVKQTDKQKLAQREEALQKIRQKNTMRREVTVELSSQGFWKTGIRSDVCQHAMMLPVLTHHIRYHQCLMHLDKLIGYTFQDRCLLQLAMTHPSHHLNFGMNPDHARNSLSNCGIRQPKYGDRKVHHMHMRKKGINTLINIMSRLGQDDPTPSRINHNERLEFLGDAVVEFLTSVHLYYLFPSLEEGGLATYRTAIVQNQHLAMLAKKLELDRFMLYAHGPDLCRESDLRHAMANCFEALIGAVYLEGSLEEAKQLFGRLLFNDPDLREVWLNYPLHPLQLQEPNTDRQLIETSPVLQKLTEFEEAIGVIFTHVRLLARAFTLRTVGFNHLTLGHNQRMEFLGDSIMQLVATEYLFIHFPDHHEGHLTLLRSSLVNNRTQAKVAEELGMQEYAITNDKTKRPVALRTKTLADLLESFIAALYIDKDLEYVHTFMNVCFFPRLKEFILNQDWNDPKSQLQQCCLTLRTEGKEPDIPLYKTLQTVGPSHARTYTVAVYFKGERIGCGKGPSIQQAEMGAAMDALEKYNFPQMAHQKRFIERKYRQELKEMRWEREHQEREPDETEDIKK
Experiment: co-IP; K562 lysate (20 mM Tris-HCl pH 8.0, 125 mM NaCl, 1% NP-40, 2 mM EDTA); IP with DROSHA antibody overnight at 4 °C, Dynabeads Protein G; rabbit isotype IgG as control; with and without RNase A treatment; blot for ADAR1 and DROSHA
Details: remark: other sources report otherwise

binding: binds
B1: ADAR1, P55265 1-1226 (protein)
chain: MNPRQGYSLSGYYTHPFQGYEHRQLRYQQPGPGSSPSSFLLKQIEFLKGQLPEAPVIGKQTPSLPPSLPGLRPRFPVLLASSTRGRQVDIRGVPRGVHLRSQGLQRGFQHPSPRGRSLPQRGVDCLSSHFQELSIYQDQEQRILKFLEELGEGKATTAHDLSGKLGTPKKEINRVLYSLAKKGKLQKEAGTPPLWKIAVSTQAWNQHSGVVRPDGHSQGAPNSDPSLEPEDRNSTSVSEDLLEPFIAVSAQAWNQHSGVVRPDSHSQGSPNSDPGLEPEDSNSTSALEDPLEFLDMAEIKEKICDYLFNVSDSSALNLAKNIGLTKARDINAVLIDMERQGDVYRQGTTPPIWHLTDKKRERMQIKRNTNSVPETAPAAIPETKRNAEFLTCNIPTSNASNNMVTTEKVENGQEPVIKLENRQEARPEPARLKPPVHYNGPSKAGYVDFENGQWATDDIPDDLNSIRAAPGEFRAIMEMPSFYSHGLPRCSPYKKLTECQLKNPISGLLEYAQFASQTCEFNMIEQSGPPHEPRFKFQVVINGREFPPAEAGSKKVAKQDAAMKAMTILLEEAKAKDSGKSEESSHYSTEKESEKTAESQTPTPSATSFFSGKSPVTTLLECMHKLGNSCEFRLLSKEGPAHEPKFQYCVAVGAQTFPSVSAPSKKVAKQMAAEEAMKALHGEATNSMASDNQPEGMISESLDNLESMMPNKVRKIGELVRYLNTNPVGGLLEYARSHGFAAEFKLVDQSGPPHEPKFVYQAKVGGRWFPAVCAHSKKQGKQEAADAALRVLIGENEKAERMGFTEVTPVTGASLRRTMLLLSRSPEAQPKTLPLTGSTFHDQIAMLSHRCFNTLTNSFQPSLLGRKILAAIIMKKDSEDMGVVVSLGTGNRCVKGDSLSLKGETVNDCHAEIISRRGFIRFLYSELMKYNSQTAKDSIFEPAKGGEKLQIKKTVSFHLYISTAPCGDGALFDKSCSDRAMESTESRHYPVFENPKQGKLRTKVENGEGTIPVESSDIVPTWDGIRLGERLRTMSCSDKILRWNVLGLQGALLTHFLQPIYLKSVTLGYLFSQGHLTRAICCRVTRDGSAFEDGLRHPFIVNHPKVGRVSIYDSKRQSGKTKETSVNWCLADGYDLEILDGTRGTVDGPRNELSRVSKKNIFLLFKKLCSFRYRRDLLRLSYGEAKKAARDYETAKNYFKKGLKDMGYGNWISKPQEEKNFYLCPV
